Source: PubChem BioAssay AID1487 (National Center for Advancing Translational Sciences (NCATS), 2009)
Values joined by “and” are separate entries in the source; they are usually repeats but may differ in a detail not shown here. Equal entries are not always repeated. Some of the results follow. These are further read-outs of the screen, such as a control signal, another cell line or another target. No call is given for them. The list favours compounds with an active or inconclusive main result. Potencies come from curve fits of mixed quality, noted in brackets.

Assay: qHTS Assay for Modulators of Lamin A Splicing
Conditions: HeLa LMNA splicing GFP/RFP minigene ratio, 48 h
In short: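 S3 HeLa cells stably expressing lamin A-EGFP splicing minigene plus DsRed2, 600 cells/well, 48 h compound exposure at 37C. Laser-scanning cytometry; analysed as GFP (500-530 nm)/RFP (575-640 nm) total intensity ratio; 0.5% DMSO vehicle.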

[1] = measured here: GFP splicing reporter channel
[2] = measured here: RFP viability control channel

SMILES	AC50 [1]	AC50 [2]
CN(C)C1(c2nnnn2CCOC(=O)Nc2ccc(Cl)cc2)CCCCC1	25.1 µM [rising, single point]	20 µM [rising, single point]
O=C(NCCc1ccccc1)c1ccc(CSc2nc3cccnc3n2Cc2ccc(F)cc2)cc1	5.01 µM [falling, partial curve]	5.01 µM [falling, partial curve]
CC(C)N1CC=C(c2c[nH]c3ccccc23)CC1	3.16 µM [rising, full curve]	5.62 µM [rising, full curve]
CCCN(CCC)C1CCc2ccc(O)cc2C1 (configuration not stated)		0.178 µM [falling, full curve, poor fit]
CCN(CC)c1ccc(CNCCc2ccccc2F)cc1	0.0355 µM [falling, full curve, poor fit]	
CCOP(=O)(OCC)c1nc(-c2ccc(F)cc2)oc1NCc1ccccc1		1.12 µM [falling, full curve, poor fit]
C[C@@H](Cc1ccccc1)NCCC(c1ccccc1)c1ccccc1	3.55 µM [falling, partial curve, poor fit]	
CCn1cc(C(=O)O)c(=O)c2ccc(C)nc21	0.158 µM [falling, full curve, poor fit]	6.31 µM [falling, single point] and 126 nM [falling, full curve, poor fit]
C/C(=C\c1ccc(N(C)C)cc1)[N+](=O)[O-]	7.94 µM [falling, partial curve]	10 µM [falling, partial curve]
OCC1OC(n2cnc3c(Cl)ncnc32)C(O)C1O (configuration not stated)	7.08 µM [rising, full curve, poor fit]	7.08 µM [rising, full curve, poor fit]
CC(C)CCON=O	0.0126 µM [falling, full curve, poor fit]	2.51 µM [rising, partial curve]
COc1ccc(NC(=O)CCc2nc(C3=CCN(Cc4cccc(Cl)c4)CC3)no2)c(OC)c1		6.31 µM [falling, partial curve, poor fit]
CCCC(=O)OC(C(Cl)(Cl)Cl)P(=O)(OC)OC (configuration not stated)	31.6 µM [rising, single point]	35.5 µM [rising, partial curve, poor fit]
Cc1ccccc1N1C(=O)NC(=O)/C(=C\c2ccc3c(c2)CCCN3Cc2ccccc2)C1=O		11.2 µM [rising, partial curve, poor fit]

Complete entries, looked up by structure.
COc1ccc(NC(=O)CCc2nc(C3=CCN(Cc4cccc(Cl)c4)CC3)no2)c(OC)c1 is entered as AC50 [2]: 6.31 µM [falling, partial curve, poor fit]
CCN(CC)c1ccc(CNCCc2ccccc2F)cc1 is entered as AC50 [1]: 0.0355 µM [falling, full curve, poor fit]
